PubChem BioAssay AID686943 | Drosophila RNAi Screening Center – 2013

- Test: 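Knockdowns that increase or decrease active ERK after insulin receptor stimulation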 (primary screen)
- System: Drosophila S2R+ haemocyte-like cells expressing YFP-tagged ERK (Rolled)
- Reagent: long dsRNA against Drosophila genes
- Conditions: insulin stimulation versus unstimulated cells; dose and duration not given
- Measured: 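Antibody staining for doubly phosphorylated ERK divided by ERK-YFP signal, as plate z-scores, in insulin-treated and untreated cells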
- Direction: replicate 1, z-score of dpERK with insulin and replicate 2, z-score of dpERK with insulin: higher = more active ERK per ERK-YFP after insulin
The screen tested about 23,000 reagents; shown is an unselected part of those that have a named target and a result. 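Extra replicates exist only for a retested subset of genes; insulin dose and duration not given; both raised and lowered dpERK matter.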 Not all columns of the deposit are shown. The record does not give: the amount of reagent, the time to read-out.

| Target gene | DRSC id | replicate 1, z-score of dpERK with insulin | replicate 2, z-score of dpERK with insulin |
| --- | --- | --- | --- |
| orion | DRSC18213 | 0.91 | -0.32 |
| orion | DRSC18214 | -0.38 | -0.04 |
| CG30151 | DRSC05888 | -0.59 | 0.04 |
| CG10527 | DRSC04078 | -0.04 | -0.32 |
| COX7B (Cytochrome c oxidase subunit 7B) | DRSC10895 | -1.23 | -2.47 |
| Irk3 (Inwardly rectifying potassium channel 3) | DRSC02047 | 1.3 | 0.07 |
| CG9609 | DRSC20199 | -1.1 | 0.14 |
| Galphas (G protein alpha subunit s) | DRSC04616 | -0.44 | 0.09 |
| Or42b (Odorant receptor 42b) | DRSC04913 | 0.11 | 0.79 |
| CG13613 | DRSC14616 | 0.42 | 0.34 |
| CG9231 | DRSC11054 | 0.05 | -0.46 |
| Efhc1.2 (EF-hand domain containing 1.2) | DRSC06027 | 0.35 | 0.09 |
| ND-13A (NADH dehydrogenase (ubiquinone) 13 kDa A subunit) | DRSC03110 | 0.25 | 0.32 |
| mRpS22 (mitochondrial ribosomal protein S22) | DRSC14488 | 1.04 | 0.26 |
| CG13907 | DRSC08377 | 0.61 | 0.31 |
| not (non-stop) | DRSC11378 | -0.4 | -0.42 |
| CG3907 | DRSC04432 | -0.22 | -0.61 |
| Mec2 | DRSC20054 | -0.16 | -0.3 |
| Drsl6 (Drosomycin-like 6) | DRSC08161 | 0.76 | 0.53 |
| ubl (ubiquitin like) | DRSC04998 | 1.1 | -0.23 |
| CG5984 | DRSC15930 | 0.24 | 0.24 |
| seq (sequoia) | DRSC06863 | 0.42 | 0.78 |
| E(spl)m5-HLH (Enhancer of split m5, helix-loop-helix) | DRSC16695 | -0.31 | -0.12 |

2 consecutive reagents already listed, quoted:
| Target gene | DRSC id | replicate 1, z-score of dpERK with insulin | replicate 2, z-score of dpERK with insulin |
| --- | --- | --- | --- |
| orion | DRSC18213 | 0.91 | -0.32 |
| orion | DRSC18214 | -0.38 | -0.04 |
